Experimental data taken from patent publication US20230338463A1, “ICD PEPTIDE AND USE THEREOF FOR HAVING CYTOTOXIC ACTIVITY ON CANCER CELLS” (NATIONAL TSING HUA UNIVERSITY, priority 2022, published 2023).
Some entries share one result that the patent states for a list of compounds. Non-standard residues stand in square brackets, D forms with d. Residues, ends and D or L forms follow the SMILES beside them. 2Nal = N[C@@H](Cc1ccc2ccccc2c1)C(=O)O

Key:
[1] = tested on: PC 9 cells; test: Extracellular cytochrome c ELISA, PC 9; format: cell-based, human; conditions: PC 9, 2-fold IC50, time not stated
Experimental: The cytochrome c release was a part of mitochondrial damage-associated molecular patterns, therefore the amount of cytochrome c released into supernatant were measured by cytochrome c ELISA assay.
The cells were washed three times using PBS solution to remove all serum components and 1× 10^6 cells/ mL was solubilised in ice-cold 0.5% Triton-X 100-PBS solution at 2-8° C. for 10 minutes. Then, the speed of 16,000 xg was applied to centrifuge the extract for another 10 minutes, and serially dilute the aliquot of supernatant collected with Calibrator Diluent RD5-18 as described in the manufacturer’s protocol.
Quantifying the volume of cytochrome c released and the results were presented in FIGS. 7A-7C via ELISA assay for 0.5, 1, 1.5, and 2 hours. SEQ ID NO:4 group induced a relatively high amount of cytochrome c compared to SEQ ID NO:3 group and SEQ ID NO: 5 group. The cytochrome c release for SEQ ID NO:4 group was double the amount of SEQ ID NO:3 group and SEQ ID NO: 5 group. The trend of cytochrome c release in SEQ ID NO:4 and SEQ ID NO:3 treated PC 9 cells were escalating from 30 minutes to 4 hours, in contrast the SEQ ID NO: 5 group has fluctuating trend. The amount of cytochrome c release has come to the maximal value of nearly 15 ng/mL at 4 hours while the minimum value of 3 ng/mL at 30 minutes of ICD peptide incubation. The highest amount of cytochrome c detected in the supernatant for SEQ ID NO:3 and SEQ ID NO: 5 were around 3.5 ng/mL and lower than 2 ng/mL for the least.

[2] = tested on: PC9 cells; format: cell-based, human; conditions: PC9, 2 × IC50, within 2 hours

`CC(=O)N[C@@H](C)C(=O)N[C@@H](CCCCN)C(=O)N[C@@H](CCCNC(=N)N)C(=O)N[C@@H](Cc1ccc2ccccc2c1)C(=O)N[C@@H](Cc1ccc2ccccc2c1)C(=O)NCC(=O)N[C@@H](Cc1ccc(O)cc1)C(=O)N[C@@H](CCCCN)C(=O)N[C@@H](CCCNC(=N)N)C(=O)N[C@@H](CCCCN)C(=O)N[C@@H](Cc1ccccc1)C(=O)N[C@@H](Cc1ccc2ccccc2c1)C(N)=O` [SEQ ID NO:3, Ac-AKR Nal Nal GYKRKFNal-NH2] (Ac-AKR[2Nal][2Nal]GYKRKF[2Nal]-NH2) was tested, and the “least amount of cytochrome c detected in the supernatant” value [1] was “lower than 2 ng/mL” and the cells killed [2] was “more than 80%”.
